The record followed here is patent publication US20150291695A1 (CANCER RESEARCH TECHNOLOGY, published 2015).

The chains behind the UniProt entries cited, without tags or fusion partners. Where a name states a change or a piece, a line headed by the entry shows the natural chain unless it says otherwise.
UniProt P06756: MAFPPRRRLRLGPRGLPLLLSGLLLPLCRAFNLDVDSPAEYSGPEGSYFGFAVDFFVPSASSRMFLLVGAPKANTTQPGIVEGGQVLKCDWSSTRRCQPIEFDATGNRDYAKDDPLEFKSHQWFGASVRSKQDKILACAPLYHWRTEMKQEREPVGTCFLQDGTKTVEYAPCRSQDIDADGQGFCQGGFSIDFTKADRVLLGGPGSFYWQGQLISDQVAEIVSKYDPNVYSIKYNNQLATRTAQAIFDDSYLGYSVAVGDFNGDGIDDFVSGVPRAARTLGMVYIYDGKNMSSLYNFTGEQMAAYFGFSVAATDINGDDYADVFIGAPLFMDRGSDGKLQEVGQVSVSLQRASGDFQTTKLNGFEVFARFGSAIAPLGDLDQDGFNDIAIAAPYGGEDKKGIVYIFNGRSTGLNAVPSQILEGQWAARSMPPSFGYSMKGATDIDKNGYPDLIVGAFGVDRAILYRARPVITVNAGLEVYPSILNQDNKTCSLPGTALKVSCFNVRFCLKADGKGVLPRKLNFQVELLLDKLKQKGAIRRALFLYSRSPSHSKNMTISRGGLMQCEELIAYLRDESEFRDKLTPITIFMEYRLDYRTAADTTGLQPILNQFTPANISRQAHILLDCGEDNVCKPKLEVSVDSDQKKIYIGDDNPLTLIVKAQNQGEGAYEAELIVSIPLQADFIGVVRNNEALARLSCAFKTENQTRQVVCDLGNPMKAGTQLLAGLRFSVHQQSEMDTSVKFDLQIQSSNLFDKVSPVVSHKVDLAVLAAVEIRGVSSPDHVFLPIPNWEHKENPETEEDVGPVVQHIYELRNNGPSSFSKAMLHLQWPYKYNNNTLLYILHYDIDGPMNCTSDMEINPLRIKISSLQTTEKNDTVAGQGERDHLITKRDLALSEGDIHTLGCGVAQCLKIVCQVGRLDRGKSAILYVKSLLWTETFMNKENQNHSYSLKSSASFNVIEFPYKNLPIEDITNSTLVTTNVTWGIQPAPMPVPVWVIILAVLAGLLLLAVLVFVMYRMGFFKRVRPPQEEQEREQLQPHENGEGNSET

No constants are given. Whether binding was seen depends on the method and setting. Some entries that bind do so weakly or less than the wild type.

In assay [1] the target is αvβ6 integrin, immobilized (UniProt P06756). Kind of assay: ELISA on immobilized αvβ6, rabbit anti-MFE detection. For orientation: ELISA stands for enzyme-linked immunosorbent assay.
For assay [2] the target is unchanged. Kind of assay: ELISA on immobilized αvβ6, 20 µg/ml.

B1: NFEVP1 (scFv)
scFv: QVKLQQSGAELVRSGTSVKLSCTASGFNIKDSYMHWLRQGPEQGLEWIGWIDPENGDTEYAPKFQGKATFTTDTSSNTAYLQLSSLTSEDTAVYYCNEGTPTAVPNLRGDLQVLAQKVAGPYPFDYWGQGTTVTVSSGGGGSGGGGSGGGGSENVLTQSPAIMSASPGEKVTITCSASSSVSYMHWFQQKPGTSPKLWIYSTSNLASGVPARFSGSGSGTSYSLTISRMEAEDAATYYCQQRSSYPLTFGAGTKLELKRAAAHHHHHH
B1: the binding entry in assay [1] and in assay [2] was “binds” in each case.
